Measurements reported in publication PMC9897159.
Results are given in words; binding and its absence hold for the method and conditions named. In cells and extracts the contact can be indirect. Here binding means that the protein was enriched with, or labelled near, the bait; the list need not be complete.

Sequences of proteins named here, by UniProt entry; tags and fusion partners are left off. A change or cut given only in a name is not applied to a line headed by its entry.
UniProt P0DTC4: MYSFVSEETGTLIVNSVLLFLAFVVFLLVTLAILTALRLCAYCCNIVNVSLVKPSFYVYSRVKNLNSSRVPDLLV
UniProt Q8TAA3: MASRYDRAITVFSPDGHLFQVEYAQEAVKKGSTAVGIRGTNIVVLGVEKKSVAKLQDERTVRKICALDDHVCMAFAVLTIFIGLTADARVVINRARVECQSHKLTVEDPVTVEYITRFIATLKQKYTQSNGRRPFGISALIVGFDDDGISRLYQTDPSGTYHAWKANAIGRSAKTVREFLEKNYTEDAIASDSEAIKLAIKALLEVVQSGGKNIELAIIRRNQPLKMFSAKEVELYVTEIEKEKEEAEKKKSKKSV
UniProt P20618: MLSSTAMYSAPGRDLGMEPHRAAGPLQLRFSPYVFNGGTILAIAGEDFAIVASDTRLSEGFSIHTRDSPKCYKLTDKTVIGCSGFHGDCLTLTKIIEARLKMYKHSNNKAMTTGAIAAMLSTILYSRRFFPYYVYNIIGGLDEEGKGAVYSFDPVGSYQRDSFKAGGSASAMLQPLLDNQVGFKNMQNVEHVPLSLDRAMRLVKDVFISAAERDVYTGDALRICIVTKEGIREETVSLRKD
UniProt P28074: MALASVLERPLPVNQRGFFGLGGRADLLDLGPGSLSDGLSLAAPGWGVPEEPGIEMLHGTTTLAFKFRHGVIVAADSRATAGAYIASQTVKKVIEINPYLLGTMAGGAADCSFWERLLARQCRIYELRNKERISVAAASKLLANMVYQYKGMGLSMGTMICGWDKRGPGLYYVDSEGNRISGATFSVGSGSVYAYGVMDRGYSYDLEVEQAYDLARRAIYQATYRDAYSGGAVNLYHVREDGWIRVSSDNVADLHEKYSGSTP
UniProt Q99942: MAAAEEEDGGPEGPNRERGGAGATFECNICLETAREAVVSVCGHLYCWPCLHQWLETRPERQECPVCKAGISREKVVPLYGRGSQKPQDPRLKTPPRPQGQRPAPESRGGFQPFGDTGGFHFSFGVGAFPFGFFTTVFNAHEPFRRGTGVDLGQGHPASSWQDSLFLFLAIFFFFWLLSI

Biological target: SARS-CoV-2 envelope (E) protein with an HA tag (SARS-CoV-2) (UniProt P0DTC4)
Test: affinity purification with mass spectrometry

Substance: PSMA8 (from UniProt Q8TAA3 1-256)
- binding: binds

Substance: PSMB1 (from UniProt P20618)
- binding: binds

Substance: PSMB5 (from UniProt P28074)
- binding: binds

Substance: RNF5 (endogenous, HEK293T) (from UniProt Q99942 1-180) (enzyme)
- binding: binds
